The values are deposited in ChEMBL (CHEMBL3988442, “University of Dundee, Small-Polar-MMV Screening Library” (2021)).

By UniProt entry, the sequences of proteins in these tests, tags left out.
UniProt E9BF75, entry or part of it: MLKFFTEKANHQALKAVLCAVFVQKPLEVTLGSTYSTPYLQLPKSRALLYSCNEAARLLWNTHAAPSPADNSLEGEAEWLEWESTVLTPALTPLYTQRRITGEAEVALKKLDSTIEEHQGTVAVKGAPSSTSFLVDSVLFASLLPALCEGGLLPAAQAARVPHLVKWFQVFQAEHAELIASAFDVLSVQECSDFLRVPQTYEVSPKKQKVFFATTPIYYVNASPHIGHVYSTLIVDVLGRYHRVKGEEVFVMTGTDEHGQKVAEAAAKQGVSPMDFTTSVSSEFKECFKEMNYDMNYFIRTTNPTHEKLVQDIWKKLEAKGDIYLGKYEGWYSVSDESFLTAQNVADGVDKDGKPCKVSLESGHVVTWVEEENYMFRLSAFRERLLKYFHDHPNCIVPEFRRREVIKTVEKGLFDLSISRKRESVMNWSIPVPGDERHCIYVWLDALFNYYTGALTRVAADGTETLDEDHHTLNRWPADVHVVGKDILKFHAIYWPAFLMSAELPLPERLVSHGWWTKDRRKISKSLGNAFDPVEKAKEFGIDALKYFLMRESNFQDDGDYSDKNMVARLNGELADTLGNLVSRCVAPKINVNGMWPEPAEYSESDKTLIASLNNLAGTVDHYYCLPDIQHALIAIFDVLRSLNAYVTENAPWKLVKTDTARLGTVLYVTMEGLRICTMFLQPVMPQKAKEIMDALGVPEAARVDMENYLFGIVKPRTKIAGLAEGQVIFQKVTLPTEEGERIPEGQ

A: 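Methionyl-tRNA synthetase (putative), Leishmania donovani (UniProt E9BF75). Primary screen of methionyl-tRNA synthetase; the read-out is not stated. The test concentration is not given. The values are filed as inhibition. Size under these conditions: about 68,000 compounds, about 24 of them at 50% or above in at least one test.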
B: 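Assay on Mycobacterium tuberculosis, filed only as a heat shock assay from Cornell; the read-out is not stated. The concentration is filed as 10 mM, unlikely as a test dose, so the dose is not known. Direction is inferred from retests: higher values go with stronger inhibition. About 69,000 compounds were tested under these conditions; 1.4% (about 930) showed 50% or more at least once.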

All values are in %. The controls that fix the scale are not given in the record; negative values are as filed. Compounds were drawn at random from those tested, without regard to their results.

* CNc1nc(C)c(C(=O)N2C[C@H]3CC[C@@H]2CN(c2cnccn2)C3)s1 : A: 12.64%
* N#Cc1cccc(Cl)c1NCCCc1nc(=O)[nH][nH]1 : A: 10.21%; B: 14.94%
* Cc1cc(-c2cnc(NC3CC3)nc2-c2ccc(C)o2)on1 : A: 16.38%; B: 8.469%
* CNC(=O)NC(=O)CNc1cc(C(=O)OC)cc(C(F)(F)F)c1 : A: 14.39%; B: 12.96%
* CCn1cc(CN2CCCN(C(=O)Cc3ccc(C)nc3)CC2)cn1 : A: 13.19%; B: -2.83%
* CC(C(=O)NCc1ccco1)N1CCN(Cc2nccn2C)CC1 (stereo not shown) : A: 12.14%; B: -37.23%
* Cn1cc(N2CCCC(Nc3ccc4c(c3)CCCO4)C2=O)cn1 (stereo not shown) : A: 13.4%; B: 34.44%
* OC1(CN2CCC(Oc3cccc(C(F)(F)F)c3)CC2)CCNC1 (stereo not shown) : A: 10.08%; B: 2.175%
* Cc1noc(CCCC(=O)NC(C)c2ccc(Cl)s2)n1 (stereo not shown) : A: 20.77%; B: 34.05%
* Cc1cnn(CC2CCCCN2C(=O)c2ccc(NC3CC3)nc2)c1 (stereo not shown) : A: 16.71%; B: 9.375%
* Cc1cc(C)n(CCCN(CCN2CCOCC2)Cc2ccco2)n1 : A: 14.88%; B: -23.77%
* CC(C)N1CCC(CC(=O)NCCc2cc(O)ncn2)CC1 : A: 12.99%; B: -144.1%
* COc1cc(NC(=O)c2cccc(N(C)C)c2)cc(OC)c1 : A: 4.57%; B: 12.67%
* O=C(CC1CC1)N[C@@H]1CN(Cc2cccnc2)C[C@@H]2CCCO[C@@H]21 : A: 11.85%
* COc1ccccc1CN1CCCCC1c1n[nH]cc1-c1cc(C)no1.Cl (stereo not shown) : B: 14.98%
* Cc1cc(C)c(CNC(=O)N(C)Cc2cccc(F)c2)c(=O)[nH]1 : A: 18.29%; B: -10.32%
* O=C(c1n[nH]c(=O)c2ccccc12)N1CCC(O)(CN2CCOCC2)C1 (stereo not shown) : A: 4.724%; B: -14.99%
* c1cc(-c2cnc(NC3CC3)nc2[C@@H]2CCCO2)ccn1 : A: 10.76%; B: 22.15%
* CC1CCC(NC(=O)CNC2(c3cccc(Br)c3)CCOCC2)CC1 (stereo not shown) : A: 15.67%; B: 0.9924%
* CC(=O)c1cc(C(=O)N2CCC(CC(C)C)C2)c(=O)[nH]c1C (stereo not shown) : A: 15.12%; B: -4.138%
* CC(C)Nc1nc2c(c(NC3CC3)n1)CCN(Cc1nccn1C)CC2.O=C(O)C(F)(F)F : B: 6.59%
* Cc1cc(C)n(CC2CCCN2CC(=O)N(C)CCC#N)n1 (stereo not shown) : A: 10.74%; B: 0.3801%
* CCS(=O)(=O)N1CCC2(CC(=O)N(c3ccccc3C)C2)C1 (stereo not shown) : A: 8.403%; B: -20.23%
* Cc1nc(C2CCCN(C(=O)c3c[nH]c(C(C)C)n3)C2)no1 (stereo not shown) : A: 9.639%; B: -10.66%
* CCOC(=O)C1CCN(Cc2csc(-c3ccc(C)o3)n2)CC1 : A: 26.07%; B: 2.531%
* CN(C)CCNc1cc(-c2ncccc2O)c2cc[nH]c2n1 : A: 8.193%; B: 5.899%
* O=C1C(NCc2ccc3c(c2)CCO3)CCN1Cc1ccccc1 (stereo not shown) : A: 6.944%
* CSc1nccc(N2CCC3(CCCN(Cc4cccc(C)c4)C3)C2)n1 (stereo not shown) : A: 24.37%; B: 3.057%
* COC(=O)c1cc(C2CC2)nc2c(C#N)cnn12 : A: 1.567%; B: -3.349%
* Cc1csc2c(N3CCC(NCCCc4ccncc4)CC3)ncnc12 : A: 14.96%; B: -4.021%
* C1CCN(Cc2nnn3c2CN(CC2CC2)CCC3)C1 : A: 4.11%; B: -16.86%
* CC(C)=CCN1C[C@@H]2CN(C(=O)c3ccc(CO)cc3)C[C@]2(C(=O)O)C1 : A: 10.41%
* Cc1cc(CN(C)C(=O)C2CCS(=O)(=O)C2)no1 (stereo not shown) : A: 8.333%; B: -4.73%

For reference, 3 entries once more:

{"smiles": "Cc1cc(-c2cnc(NC3CC3)nc2-c2ccc(C)o2)on1", "A": 16.38, "B": 8.469}
{"smiles": "Cc1cc(C)c(CNC(=O)N(C)Cc2cccc(F)c2)c(=O)[nH]1", "A": 18.29, "B": -10.32}
{"smiles": "CN(C)CCNc1cc(-c2ncccc2O)c2cc[nH]c2n1", "A": 8.193, "B": 5.899}